The other results are listed elsewhere or left out. Single values are uncertain here, since repeats match poorly.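 Human embryonic kidney cells were transiently transfected with a plasmid bearing a Renilla luciferase gene under the HSV-TK promoter. This first-round screen tests roughly ten thousand compounds for ones that increase reporter output.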

Our source for the log values is the supplement of paper PMC7024190.

In the assay the test system is HEK 293FT. Briefly: log relative Renilla luciferase luminescence (reporter expression vs reference, reference not stated) (log (base not stated)); higher = higher recombinant reporter expression. The note with it: 10 µM; time after transfection 48 h. The method, then: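 HEK 293FT cells transiently transfected with pRL-TK (Renilla luciferase) were treated with compounds at 10 uM and luminescence was read about 42 h later. Values are log relative Renilla luminescence (log base and reference not stated). Single-pass screen; 2080 natural products library.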
On to `CC(C)=C1CC2OC2(C)CCC2OC2(C)CC1=O` (stereo not drawn) [1,10:4,5-Diepoxy-7(11)-germacren-8-one], for which the log was -0.205.

Turning to `COn1cc(CC[C@@H](C)CO)c2ccccc21` [Paniculidine B], the log is -0.397.

Regarding `O=C(O)C1=CO[C@@H](O[C@@H]2O[C@H](CO)[C@@H](O)[C@H](O)[C@H]2O)[C@@H]2C(CO)=CC[C@H]12` [Geniposidic acid], the log is -0.227.

Take `CC[C@H](/C=C/[C@@H](C)[C@H]1CC[C@H]2[C@@H]3CC=C4C[C@@H](O)CC[C@]4(C)[C@H]3CC[C@]12C)C(C)C` [Stigmasterol]: the log is -0.0384.

In the case of `C=Cc1cncc2c1CCOC2=O` [Gentianine], the log came out at 0.156.

Consider `CCCCCc1cc(=O)c2ccccc2n1C` [1-Methyl-2-pentyl-4(1H)-quinolinone], for which the log was -0.144.

Take `CC(C)C[C@H](c1c(O)c(C=O)c(O)c(C=O)c1O)[C@@]1(C)CC[C@@H]2[C@@H]1[C@H]1[C@@H](CC[C@@]2(C)O)C1(C)C` [Macrocarpal B]: the log is -0.22.

As to `COc1c(O)cc2c(c1O)C(=O)C[C@@H](c1ccc(O)cc1)O2` [6-Methoxynaringenin], the log worked out at 0.0912.

For the molecule `COc1c(O)cc2c(=O)oc3c(O)c(O[C@@H]4OC[C@@H](O)[C@H](O)[C@H]4O)cc4c(=O)oc1c2c34` [Ducheside A], the log was 0.0997.

Take `COc1ccoc1` [3-Methoxyfuran]: the log was -0.0445.

For `C=C1C(OC(C)=O)C(OC(C)=O)C(OC(C)=O)C(C)(C)C=CC(C)C(OC(C)=O)C2(O)CC(C)(OC(C)=O)C(OC(=O)c3ccccc3)C2C1OC(C)=O` (stereo not drawn), the log was -0.146.

As for `O=C1C[C@@H](c2ccc(O)cc2)Oc2cc(O)cc(O)c21` [Naringenin], the log came to 0.103.

On to `C[C@]1(CO)CCC[C@]2(C)[C@@H]1CC[C@]13C=C(C(=O)O)[C@H](CC[C@H]12)C3` [Pseudolaric acid D], for which the log is -0.308.
